According to patent US20250223366A1, “MONOCLONAL ANTIBODIES AND BISPECIFIC ANTIBODY AGAINST C-MET” (BIOTHEUS INC., priority 2022, published 2025):
No constants are given. Whether binding was seen depends on the method and setting. Some results given as binding are weak or reduced against the parent protein; the word gives no strength.

Target: monkey c-MET protein (monkey)
Assay: ForteBio (BLI) affinity assay

Row | Binder | binding
1 | anti-c-MET antibody 136 (antibody, V domains shown) VH: EVQLQESGPGLVKPSETLSLTCTVSGGSVTSVNYYWKWIRQPPGKGLEWIGYISYSGNTNYNPSLKSRVTISVDTSKNQFSLKLSSVTAADTAVYYCVRAPYYYMDVWSKGTTVTVSS VL: DIVMTQSPSSVSASVGDRVTITCRASQGISSWLAWYQQKPGKAPKLLIYAVSSLQSGVPSRFSGSGSGTDFTLTISSLQPEDFATYFCQQANSFPLTFGGGTKVEIK | binds
2 | anti-c-MET antibody 187 (antibody, V domains shown) VH: ELQLQESGPGLVKPSETLSLTCTVSGGSISSSSYYWGWIRQSPGKGLEWIGSRYYSGNTYYNPSLKSRVTMSVDTSKNQFSLKLRSVTAADTAVYYCARQVYDYWRDWGQGALVTVSS VL: DIVMTQSPSSVSASVGDRVTITCRASQGISSWLAWYQQKPGKAPNLLIYAASNLPSGVPSRFSGSGSGTVFTLTISSLQPEDFATYYCQQSNSFPLTFGGGTKVEIK | binds
